Test results as given in article PMC9629621.
These are yes or no findings as the source states them, for the method shown. In cells and extracts the contact can be indirect. Some entries that bind do so weakly or less than the wild type. For some of these results: Tags and fused reporters may be left off the sequences shown. One block for each binder: values may come before it.

By UniProt entry, the sequences of proteins in these tests, tags left out. Where a name states a change or a piece, a line headed by the entry shows the natural chain unless it says otherwise.
UniProt P10591: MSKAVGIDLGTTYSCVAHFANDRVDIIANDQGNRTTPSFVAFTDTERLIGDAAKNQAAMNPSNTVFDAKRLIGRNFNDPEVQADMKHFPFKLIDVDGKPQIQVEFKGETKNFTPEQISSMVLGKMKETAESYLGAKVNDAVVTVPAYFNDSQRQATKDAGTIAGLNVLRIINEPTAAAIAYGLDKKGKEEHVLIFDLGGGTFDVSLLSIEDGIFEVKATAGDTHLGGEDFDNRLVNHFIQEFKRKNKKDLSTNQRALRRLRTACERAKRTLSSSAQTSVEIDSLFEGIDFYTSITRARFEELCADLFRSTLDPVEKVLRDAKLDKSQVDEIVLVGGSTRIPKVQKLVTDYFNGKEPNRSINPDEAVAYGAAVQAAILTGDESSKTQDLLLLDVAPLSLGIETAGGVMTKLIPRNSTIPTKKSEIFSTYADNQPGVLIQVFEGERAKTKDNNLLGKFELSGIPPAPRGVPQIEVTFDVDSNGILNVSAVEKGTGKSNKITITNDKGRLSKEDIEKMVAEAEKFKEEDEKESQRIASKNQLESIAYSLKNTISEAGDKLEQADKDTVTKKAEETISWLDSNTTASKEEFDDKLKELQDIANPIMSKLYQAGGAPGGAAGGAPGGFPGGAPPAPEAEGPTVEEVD
UniProt P32480: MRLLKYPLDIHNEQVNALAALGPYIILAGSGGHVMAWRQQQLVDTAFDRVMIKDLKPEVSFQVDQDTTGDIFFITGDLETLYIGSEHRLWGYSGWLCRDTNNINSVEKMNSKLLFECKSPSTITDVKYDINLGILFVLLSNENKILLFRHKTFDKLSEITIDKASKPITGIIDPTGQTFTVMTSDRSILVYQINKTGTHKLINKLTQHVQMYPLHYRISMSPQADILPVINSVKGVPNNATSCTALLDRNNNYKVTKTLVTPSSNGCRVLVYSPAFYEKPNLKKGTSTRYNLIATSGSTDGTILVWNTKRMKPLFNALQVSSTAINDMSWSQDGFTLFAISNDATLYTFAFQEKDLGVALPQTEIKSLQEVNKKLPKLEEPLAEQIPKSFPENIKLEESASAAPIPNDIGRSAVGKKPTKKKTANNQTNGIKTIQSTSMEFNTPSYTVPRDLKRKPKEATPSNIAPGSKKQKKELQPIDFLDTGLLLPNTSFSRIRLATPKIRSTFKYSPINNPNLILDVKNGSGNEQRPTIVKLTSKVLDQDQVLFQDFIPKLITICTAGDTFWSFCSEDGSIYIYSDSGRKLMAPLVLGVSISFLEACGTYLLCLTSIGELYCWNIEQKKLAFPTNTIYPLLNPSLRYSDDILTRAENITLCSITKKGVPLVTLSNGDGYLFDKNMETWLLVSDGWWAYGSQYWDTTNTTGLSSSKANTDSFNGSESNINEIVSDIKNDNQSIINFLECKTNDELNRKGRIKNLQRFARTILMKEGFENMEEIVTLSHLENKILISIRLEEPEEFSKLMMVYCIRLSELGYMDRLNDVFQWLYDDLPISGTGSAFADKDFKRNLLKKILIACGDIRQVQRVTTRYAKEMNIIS
UniProt P47079: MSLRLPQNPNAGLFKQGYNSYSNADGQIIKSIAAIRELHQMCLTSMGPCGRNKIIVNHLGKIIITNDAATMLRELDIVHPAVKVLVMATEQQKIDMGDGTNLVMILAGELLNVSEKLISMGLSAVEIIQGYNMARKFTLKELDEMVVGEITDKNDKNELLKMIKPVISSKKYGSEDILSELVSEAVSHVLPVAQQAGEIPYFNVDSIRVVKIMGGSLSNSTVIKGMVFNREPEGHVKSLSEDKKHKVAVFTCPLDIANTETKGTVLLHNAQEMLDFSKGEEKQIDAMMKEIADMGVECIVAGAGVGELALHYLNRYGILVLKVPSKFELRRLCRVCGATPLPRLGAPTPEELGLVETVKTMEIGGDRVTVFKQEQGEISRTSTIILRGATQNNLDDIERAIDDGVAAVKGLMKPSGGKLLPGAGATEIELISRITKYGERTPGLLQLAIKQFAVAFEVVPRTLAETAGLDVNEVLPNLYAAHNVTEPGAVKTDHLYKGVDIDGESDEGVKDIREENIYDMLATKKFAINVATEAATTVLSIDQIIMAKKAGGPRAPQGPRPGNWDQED

What was measured:
[1] = target: HIS-tagged Ssa1 (yeast Hsp70) (S. cerevisiae) (UniProt P10591); assay: cross-linking; XL-MS: about 150 ug of His-Ssa1 complex purified from yeast (His-Trap), cross-linked with 5 mM DSSO, room temperature, 1 h; trypsin digest, LC-MS with MS2/MS3; filtered for cross-linked peptides with at least one Ssa1 peptide
[2] = target: FLAG-Ssa1 V435F (substrate-binding deficient mutant) (S. cerevisiae) (UniProt P10591); assay: co-IP; yeast extract (200 ug) on anti-Flag M2 magnetic beads, 4°C overnight; 50 mM Na-phosphate pH 8.0, 300 mM NaCl, 0.01% Tween-20; eluted with 3x FLAG peptide; western blot
[3] = target: Ssa1 wild type, epitope-tagged (FLAG-Ssa1, GFP-Ssa1, HA-Ssa1) (S. cerevisiae) (UniProt P10591); assay: as above
FLAG-Lonp-1, P36776 = target: T1, FLAG-Lonp-1, P36776; assay: co-IP; HEK293 cells transfected with FLAG-Lonp-1, 24 h; complexes isolated on FLAG Dynabeads; western blot; settings: remark: other sources report otherwise
T1 chain: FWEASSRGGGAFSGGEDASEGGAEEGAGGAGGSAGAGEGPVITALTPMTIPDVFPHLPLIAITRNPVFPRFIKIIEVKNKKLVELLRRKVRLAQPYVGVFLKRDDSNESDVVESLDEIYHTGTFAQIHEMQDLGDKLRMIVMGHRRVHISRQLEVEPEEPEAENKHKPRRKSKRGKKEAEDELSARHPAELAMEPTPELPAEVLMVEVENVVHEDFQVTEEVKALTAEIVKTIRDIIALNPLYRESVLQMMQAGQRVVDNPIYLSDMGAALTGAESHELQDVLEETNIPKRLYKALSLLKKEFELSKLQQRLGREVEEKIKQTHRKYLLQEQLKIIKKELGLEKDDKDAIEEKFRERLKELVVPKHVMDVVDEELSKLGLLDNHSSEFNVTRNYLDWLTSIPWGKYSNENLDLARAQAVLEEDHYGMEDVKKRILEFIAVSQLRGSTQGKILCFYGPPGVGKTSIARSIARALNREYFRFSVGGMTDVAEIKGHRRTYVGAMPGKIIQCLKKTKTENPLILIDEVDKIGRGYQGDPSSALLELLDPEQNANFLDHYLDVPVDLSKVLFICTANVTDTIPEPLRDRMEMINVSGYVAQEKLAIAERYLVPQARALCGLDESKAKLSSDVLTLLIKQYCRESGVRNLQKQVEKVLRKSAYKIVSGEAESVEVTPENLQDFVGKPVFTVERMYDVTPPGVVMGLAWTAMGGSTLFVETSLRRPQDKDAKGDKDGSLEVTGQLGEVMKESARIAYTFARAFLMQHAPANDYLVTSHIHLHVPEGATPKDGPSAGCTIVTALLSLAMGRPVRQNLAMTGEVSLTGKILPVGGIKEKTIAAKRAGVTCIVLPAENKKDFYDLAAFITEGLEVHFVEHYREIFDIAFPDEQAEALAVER

[4] = target: Hir2 (immunoprecipitated from yeast) (S. cerevisiae) (UniProt P32480); assay: co-IP; Co-IP of Hir1 and Hir2 from yeast followed by immunoblotting for chaperones (Fig 4C); beads and tag not told for this panel
[5] = target: Cct8 with an HA epitope tag at the carboxy terminus (S. cerevisiae) (UniProt P47079); assay: co-IP; yeast extract (200 ug) on anti-HA magnetic beads, 4°C, 30 min; 50 mM Na-phosphate pH 8.0, 300 mM NaCl, 0.01% Tween-20; western blot
[6] = target: T2, Pcl7 with an HA epitope tag at the carboxy terminus (S. cerevisiae) (UniProt P40186); assay: as above
T2 sequence: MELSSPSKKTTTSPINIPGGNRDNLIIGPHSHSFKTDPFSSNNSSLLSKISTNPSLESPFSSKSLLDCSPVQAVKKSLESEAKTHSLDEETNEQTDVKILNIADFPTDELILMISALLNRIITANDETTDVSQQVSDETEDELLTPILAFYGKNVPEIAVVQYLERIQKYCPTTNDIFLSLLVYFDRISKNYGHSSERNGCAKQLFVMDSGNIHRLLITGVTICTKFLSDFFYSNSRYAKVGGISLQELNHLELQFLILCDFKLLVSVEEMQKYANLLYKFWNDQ

[7] = target: T3, Ura8 with an HA epitope tag at the carboxy terminus (S. cerevisiae) (UniProt P38627); assay: as above
T3 sequence: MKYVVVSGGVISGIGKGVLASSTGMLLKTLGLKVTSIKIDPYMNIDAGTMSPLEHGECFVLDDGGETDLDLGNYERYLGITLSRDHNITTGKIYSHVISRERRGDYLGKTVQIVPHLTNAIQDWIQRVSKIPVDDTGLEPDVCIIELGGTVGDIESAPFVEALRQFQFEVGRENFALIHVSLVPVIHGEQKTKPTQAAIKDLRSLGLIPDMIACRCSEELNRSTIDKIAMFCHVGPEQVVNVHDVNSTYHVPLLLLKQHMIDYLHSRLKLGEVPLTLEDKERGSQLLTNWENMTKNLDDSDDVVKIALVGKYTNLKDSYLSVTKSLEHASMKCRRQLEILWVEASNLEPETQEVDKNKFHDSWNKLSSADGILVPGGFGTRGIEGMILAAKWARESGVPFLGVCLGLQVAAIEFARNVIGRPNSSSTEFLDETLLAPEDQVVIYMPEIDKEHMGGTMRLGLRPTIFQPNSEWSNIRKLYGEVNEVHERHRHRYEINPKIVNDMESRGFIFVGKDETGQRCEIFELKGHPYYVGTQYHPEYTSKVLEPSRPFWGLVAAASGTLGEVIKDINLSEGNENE

[8] = target: T4, Mtw1-FLAG (S. cerevisiae) (UniProt P39731); assay: co-IP; yeast extract (200 ug) on anti-Flag M2 magnetic beads, 4°C overnight; 50 mM Na-phosphate pH 8.0, 300 mM NaCl, 0.01% Tween-20; eluted with 3x FLAG peptide; western blot
T4 sequence: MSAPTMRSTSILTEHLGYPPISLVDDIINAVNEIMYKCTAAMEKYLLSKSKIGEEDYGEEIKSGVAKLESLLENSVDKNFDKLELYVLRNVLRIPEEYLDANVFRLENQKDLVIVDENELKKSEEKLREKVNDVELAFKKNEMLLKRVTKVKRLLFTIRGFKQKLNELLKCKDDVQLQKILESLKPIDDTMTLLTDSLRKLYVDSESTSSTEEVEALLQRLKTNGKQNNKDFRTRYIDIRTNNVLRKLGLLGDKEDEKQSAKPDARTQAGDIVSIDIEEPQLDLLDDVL

- binding [1]: binds
B1: Ura8 (endogenous) (protein, UniProt P38627 1-578)
chain: T3 sequence

- binding [2]: no binding
- binding [3]: binds
B2: Rnr2 (protein, UniProt P09938 1-399)
chain: MPKETPSKAAADALSDLEIKDSKSNLNKELETLREENRVKSDMLKEKLSKDAENHKAYLKSHQVHRHKLKEMEKEEPLLNEDKERTVLFPIKYHEIWQAYKRAEASFWTAEEIDLSKDIHDWNNRMNENERFFISRVLAFFAASDGIVNENLVENFSTEVQIPEAKSFYGFQIMIENIHSETYSLLIDTYIKDPKESEFLFNAIHTIPEIGEKAEWALRWIQDADALFGERLVAFASIEGVFFSGSFASIFWLKKRGMMPGLTFSNELICRDEGLHTDFACLLFAHLKNKPDPAIVEKIVTEAVEIEQRYFLDALPVALLGMNADLMNQYVEFVADRLLVAFGNKKYYKVENPFDFMENISLAGKTNFFEKRVSDYQKAGVMSKSTKQEAGAFTFNEDF

- binding (FLAG-Lonp-1, P36776): no binding
B3: Hsp110, Q92598 1-858 (protein)
chain: MSVVGLDVGSQSCYIAVARAGGIETIANEFSDRCTPSVISFGSKNRTIGVAAKNQQITHANNTVSNFKRFHGRAFNDPFIQKEKENLSYDLVPLKNGGVGIKVMYMGEEHLFSVEQITAMLLTKLKETAENSLKKPVTDCVISVPSFFTDAERRSVLDAAQIVGLNCLRLMNDMTAVALNYGIYKQDLPSLDEKPRIVVFVDMGHSAFQVSACAFNKGKLKVLGTAFDPFLGGKNFDEKLVEHFCAEFKTKYKLDAKSKIRALLRLYQECEKLKKLMSSNSTDLPLNIECFMNDKDVSGKMNRSQFEELCAELLQKIEVPLYSLLEQTHLKVEDVSAVEIVGGATRIPAVKERIAKFFGKDISTTLNADEAVARGCALQCAILSPAFKVREFSVTDAVPFPISLIWNHDSEDTEGVHEVFSRNHAAPFSKVLTFLRRGPFELEAFYSDPQGVPYPEAKIGRFVVQNVSAQKDGEKSRVKVKVRVNTHGIFTISTASMVEKVPTEENEMSSEADMECLNQRPPENPDTDKNVQQDNSEAGTQPQVQTDAQQTSQSPPSPELTSEENKIPDADKANEKKVDQPPEAKKPKIKVVNVELPIEANLVWQLGKDLLNMYIETEGKMIMQDKLEKERNDAKNAVEEYVYEFRDKLCGPYEKFICEQDHQNFLRLLTETEDWLYEEGEDQAKQAYVDKLEELMKIGTPVKVRFQEAEERPKMFEELGQRLQHYAKIAADFRNKDEKYNHIDESEMKKVEKSVNEVMEWMNNVMNAQAKKSLDQDPVVRAQEIKTKIKELNNTCEPVVTQPKPKIESPKLERTPNGPNIDKKEEDLEDKNNFGAEPPHQNGECYPNEKNSVNMDLD

- binding [4]: binds
- binding [5]: binds
- binding [6]: binds
- binding [7]: binds
- binding [8]: binds
- binding [1]: binds
B4: Sse1 (endogenous) (protein, UniProt P32589 1-693)
chain: MSTPFGLDLGNNNSVLAVARNRGIDIVVNEVSNRSTPSVVGFGPKNRYLGETGKNKQTSNIKNTVANLKRIIGLDYHHPDFEQESKHFTSKLVELDDKKTGAEVRFAGEKHVFSATQLAAMFIDKVKDTVKQDTKANITDVCIAVPPWYTEEQRYNIADAARIAGLNPVRIVNDVTAAGVSYGIFKTDLPEGEEKPRIVAFVDIGHSSYTCSIMAFKKGQLKVLGTACDKHFGGRDFDLAITEHFADEFKTKYKIDIRENPKAYNRILTAAEKLKKVLSANTNAPFSVESVMNDVDVSSQLSREELEELVKPLLERVTEPVTKALAQAKLSAEEVDFVEIIGGTTRIPTLKQSISEAFGKPLSTTLNQDEAIAKGAAFICAIHSPTLRVRPFKFEDIHPYSVSYSWDKQVEDEDHMEVFPAGSSFPSTKLITLNRTGDFSMAASYTDITQLPPNTPEQIANWEITGVQLPEGQDSVPVKLKLRCDPSGLHTIEEAYTIEDIEVEEPIPLPEDAPEDAEQEFKKVTKTVKKDDLTIVAHTFGLDAKKLNELIEKENEMLAQDKLVAETEDRKNTLEEYIYTLRGKLEEEYAPFASDAEKTKLQGMLNKAEEWLYDEGFDSIKAKYIAKYEELASLGNIIRGRYLAKEEEKKQAIRSKQEASQMAAMAEKLAAQRKAEAEKKEEKKDTEGDVDMD
